Laboratory results taken from the supplement of paper PMC8007513.
This is one part of the list. Many values rest on one well or one pass, so single values are uncertain.

test system: Saccharomyces cerevisiae BY4743; test: growth (OD600) with compound + IPBC relative to untreated control; higher = less growth inhibition; settings: compound concentration: 133 uM; IPBC concentration: 0.5 ug/ml; 20 h
Procedure: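 NMCCC compounds (133 uM) combined with IPBC (0.5 ug/ml) against Saccharomyces cerevisiae BY4743 in YPD, 96-well plates. Growth was read as OD600 at 20 h and expressed as % of the untreated control. Single pass.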

| Compound | growth |
| --- | --- |
| CC(=O)c1ccc(NC(=O)c2nc3nc(C)cc(C(F)F)n3n2)cc1 + CCCCNC(=O)OCC#CI [3-iodo-2-propynyl butylcarbamate (IPBC)] | 98.9% |
| CCOC(=O)C(=O)N1\N=C(/CC1(O)C(C)(C)C)C(F)(F)F (configuration not stated) + CCCCNC(=O)OCC#CI [3-iodo-2-propynyl butylcarbamate (IPBC)] | 92.3% |
| O=C(Nc1ccc(N2CCCC2)cn1)c1ccc(Cl)cc1 + CCCCNC(=O)OCC#CI [3-iodo-2-propynyl butylcarbamate (IPBC)] | 86.3% |
| Cc1noc(C)c1CSCC(=O)NC1CCN(Cc2ccccn2)CC1 + CCCCNC(=O)OCC#CI [3-iodo-2-propynyl butylcarbamate (IPBC)] | 95.7% |
| COC(=O)c1ccccc1S(=O)(=O)NCc1nc2nc(C)cc(C)n2n1 + CCCCNC(=O)OCC#CI [3-iodo-2-propynyl butylcarbamate (IPBC)] | 98.7% |
| CCn1c(O)nnc1SCc1csc(C)n1 + CCCCNC(=O)OCC#CI [3-iodo-2-propynyl butylcarbamate (IPBC)] | 97.3% |
| CCc1nnc(NC(=O)CC2(CC(=O)N3CCOCC3)CCCC2)s1 + CCCCNC(=O)OCC#CI [3-iodo-2-propynyl butylcarbamate (IPBC)] | 104% |
| COC(=O)c1ccc(C(=O)N2CCN(C(=O)c3ccc(OC)cc3)CC2)nc1 + CCCCNC(=O)OCC#CI [3-iodo-2-propynyl butylcarbamate (IPBC)] | 109% |
| Cn1cnc(S(=O)(=O)N2CC(OCc3ccc(Cl)cc3)C2)c1 + CCCCNC(=O)OCC#CI [3-iodo-2-propynyl butylcarbamate (IPBC)] | 81.4% |
| Cc1nn(C)c(C)c1NC(=O)CSc1nnc(Nc2ccc(OC(F)(F)F)cc2)s1 + CCCCNC(=O)OCC#CI [3-iodo-2-propynyl butylcarbamate (IPBC)] | 93.6% |
| CCNC(=O)NC(=O)CSc1nnc(-c2cccc(S(=O)(=O)N(CC)CC)c2)o1 + CCCCNC(=O)OCC#CI [3-iodo-2-propynyl butylcarbamate (IPBC)] | 37% |
| CC(=O)c1c[nH]c(C(=O)OCC(=O)N2CC(=O)Nc3ccccc32)c1 + CCCCNC(=O)OCC#CI [3-iodo-2-propynyl butylcarbamate (IPBC)] | 89.4% |
| CCc1cc2c(Nc3cccc(O)c3)nc(C)nc2s1 + CCCCNC(=O)OCC#CI [3-iodo-2-propynyl butylcarbamate (IPBC)] | 59.9% |
| CC(C)C[C@H](NC(=O)N1CCc2ccccc21)C(=O)O + CCCCNC(=O)OCC#CI [3-iodo-2-propynyl butylcarbamate (IPBC)] | 87.6% |
| Cc1cc(C(F)(F)F)n2ncc(-c3cccc(Br)c3)c2n1 + CCCCNC(=O)OCC#CI [3-iodo-2-propynyl butylcarbamate (IPBC)] | 84.8% |
| COc1cccc(NC(=O)C2(n3cnnn3)CCCCC2)c1 + CCCCNC(=O)OCC#CI [3-iodo-2-propynyl butylcarbamate (IPBC)] | 80.6% |
| Cn1cc(S(=O)(=O)N2CCCC2)cc1C(=O)OC(c1cc(F)cc(F)c1)C(F)(F)F (configuration not stated) + CCCCNC(=O)OCC#CI [3-iodo-2-propynyl butylcarbamate (IPBC)] | 113% |

At a glance, part of the list above.

| Compound | growth |
| --- | --- |
| Cn1cnc(S(=O)(=O)N2CC(OCc3ccc(Cl)cc3)C2)c1 + CCCCNC(=O)OCC#CI [3-iodo-2-propynyl butylcarbamate (IPBC)] | 81.4% |
| Cc1nn(C)c(C)c1NC(=O)CSc1nnc(Nc2ccc(OC(F)(F)F)cc2)s1 + CCCCNC(=O)OCC#CI [3-iodo-2-propynyl butylcarbamate (IPBC)] | 93.6% |
